Test results reported in patent publication US20030158199A1, “Novel compounds for inhibition of Tie-2” (KYLIX, B.V., priority 2002, published 2003).

By UniProt entry, the sequences of proteins in these tests, tags left out. Residues count along the entry.
UniProt P08581, 956-1390 limits assumed: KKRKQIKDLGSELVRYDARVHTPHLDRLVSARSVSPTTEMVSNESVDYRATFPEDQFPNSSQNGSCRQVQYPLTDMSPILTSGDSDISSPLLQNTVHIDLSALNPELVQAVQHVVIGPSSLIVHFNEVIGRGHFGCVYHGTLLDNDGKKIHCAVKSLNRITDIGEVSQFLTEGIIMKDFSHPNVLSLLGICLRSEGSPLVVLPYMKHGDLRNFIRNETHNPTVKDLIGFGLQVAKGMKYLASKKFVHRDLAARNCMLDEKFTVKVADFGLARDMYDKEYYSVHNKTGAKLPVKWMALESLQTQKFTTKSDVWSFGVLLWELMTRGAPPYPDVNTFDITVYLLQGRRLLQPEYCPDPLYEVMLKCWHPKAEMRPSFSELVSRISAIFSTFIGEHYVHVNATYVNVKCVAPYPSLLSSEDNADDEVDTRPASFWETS
UniProt P35968, 807-1356 limits assumed: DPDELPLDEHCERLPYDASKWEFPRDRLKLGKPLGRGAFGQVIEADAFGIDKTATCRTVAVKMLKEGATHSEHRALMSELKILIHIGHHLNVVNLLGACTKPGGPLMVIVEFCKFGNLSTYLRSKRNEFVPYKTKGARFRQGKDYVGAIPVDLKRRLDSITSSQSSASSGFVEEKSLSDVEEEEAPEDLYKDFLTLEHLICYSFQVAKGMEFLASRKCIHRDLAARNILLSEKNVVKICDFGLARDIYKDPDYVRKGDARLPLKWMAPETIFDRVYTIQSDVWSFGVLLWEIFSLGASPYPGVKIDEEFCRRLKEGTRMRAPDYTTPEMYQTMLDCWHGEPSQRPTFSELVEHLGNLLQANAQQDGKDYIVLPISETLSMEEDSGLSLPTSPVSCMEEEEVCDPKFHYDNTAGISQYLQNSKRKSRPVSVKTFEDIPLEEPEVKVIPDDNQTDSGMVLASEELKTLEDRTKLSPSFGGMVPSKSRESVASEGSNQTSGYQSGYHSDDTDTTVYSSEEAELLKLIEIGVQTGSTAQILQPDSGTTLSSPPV
UniProt Q02763, 771-1124 limits assumed: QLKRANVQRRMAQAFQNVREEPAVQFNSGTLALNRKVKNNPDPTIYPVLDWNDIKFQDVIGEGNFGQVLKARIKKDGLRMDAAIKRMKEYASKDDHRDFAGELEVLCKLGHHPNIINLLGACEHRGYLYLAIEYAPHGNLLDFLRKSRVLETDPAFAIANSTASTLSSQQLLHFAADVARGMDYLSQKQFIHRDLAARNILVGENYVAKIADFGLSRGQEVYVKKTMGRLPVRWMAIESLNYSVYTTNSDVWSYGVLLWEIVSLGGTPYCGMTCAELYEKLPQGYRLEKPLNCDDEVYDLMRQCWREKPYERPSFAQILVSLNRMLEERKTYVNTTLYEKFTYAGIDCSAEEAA

Key:
c-Met = c-Met (Homo sapiens, UniProt P08581); experiment: RTK ELISA, recombinant kinase domain, c-Met; conditions: read-out: IC50 c-Met, GST-cMet (aa956-1390) expressed in baculovirus infected insect cells, tested form: HBr
Experimental: (§1) Follwing IC50 values were determined in the RTK ELISA using recombinant kinase domains of receptor tyrosine kinases which were expressed in baculovirus infected insect cells.
(§2) Receptor Tyrosine Kinase Assay
(§3) The following in vitro assays are used to determine the ability of different compounds to inhibit the transfer of phosphate groups onto tyrosine residues of downstream substrates. The level of phosphorylation is measured by a monoclonal antibody which is specific for phosphorylated tyrosine residues in an enzyme-linked immunosorbent assay (ELISA).
(§4) The following recombinant kinases were expressed in baculovirus infected insect cells Sf9 and purchased from ProQuinase, Freiburg:
(§5) If not otherwise indicated all steps are performed at room temperature.
(§6) 1.) Coat wells of ELISA plate with […] Poly-Glu-Tyr 4:1 in 100 μl/well PBS buffer (137 mM NaCl, 3 mM KCl, 1.5 mM KH2PO4, 8.2 mM Na2HPO4) overnight at 4° C.
(§7) 2.) Wash 2 times for 5 min each with PBS+0.05% Tween20 […]
(§8) a) Add 5-30 ng/well kinase in 50 μl/well kinase buffer (100 mM HEPES pH 7.4, 100 mM NaCl, 0.1 mM Na3VO4) b) Add 25 μl/well compound (50 and 5 μM) in 5% DMSO c) Add 25 μl/well 100 μM ATP in 40 mM MnCl2
(§9) 4.) Wash 3 times for 5 min each with PBS+0.05% Tween20
(§10) 5.) Add anti phosphotyrosin antibody/HRP 1:10.000 in 100 μl/well PBS+0.05% Tween+0.1 BSA, incubate for 1 h […]
(§11) 8.) Detect chemoluminescence signals in Tecan Genios reader

KDR = KDR (Homo sapiens, UniProt P35968); experiment: RTK ELISA, recombinant kinase domain, KDR; conditions: read-out: IC50 KDR, GST-KDR (aa807-1356) expressed in baculovirus infected insect cells, tested form: HBr
Experimental: as §1, §2, §3, §4, §5, §6, §7, §8, §9, §10, §11

Tie-2 = Tie-2 (Homo sapiens, UniProt Q02763); experiment: RTK ELISA, recombinant kinase domain, Tie-2; conditions: read-out: IC50 Tie-2, GST-Tie2/Tek (aa 771-1124) expressed in baculovirus infected insect cells, tested form: HBr
Experimental: as §1, §2, §3, §4, §5, §6, §7, §8, §9, §10, §11

CCN(CC)c1ccc(-c2coc(-c3ccncc3)n2)cc1
IC50 (c-Met): > 50 µM | IC50 (KDR): > 25 µM | IC50 (Tie-2): > 50 µM

The match of structure and compound is tentative.
